From patent US12729225B2, “Non-canonical SWI/SNF complex and uses thereof” (Dana-Farber Cancer Institute, Inc., priority 2018, dated 2026) come the findings set out here.

The chains are these.
B1: APMAP (protein, UniProt Q9HDC9 2-416, looked up)
Adipocyte plasma …: SEADGLRQRRPLRPQVVTDDDGQAPEAKDGSSFSGRVFRVTFLMLAVSLTVPLLGAMMLLESPIDPQPLSFKEPPLLLGVLHPNTKLRQAERLFENQLVGPESIAHIGDVMFTGTADGRVVKLENGEIETIARFGSGPCKTRDDEPVCGRPLGIRAGPNGTLFVADAYKGLFEVNPWKREVKLLLSSETPIEGKNMSFVNDLTVTQDGRKIYFTDSSSKWQRRDYLLLVMEGTDDGRLLEYDTVTREVKVLLDQLRFPNGVQLSPAEDFVLVAETTMARIRRVYVSGLMKGGADLFVENMPGFPDNIRPSSSGGYWVGMSTIRPNPGFSMLDFLSERPWIKRMIFKLFSQETVMKFVPRYSLVLELSDSGAFRRSLHDPDGLVATYISEVHEHDGHLYLGSFRSPFLCRLSLQAV
B2: CPSF3 (protein, UniProt Q9UKF6 2-684, looked up)
Cleavage and polyadenylation …: SAIPAEESDQLLIRPLGAGQEVGRSCIILEFKGRKIMLDCGIHPGLEGMDALPYIDLIDPAEIDLLLISHFHLDHCGALPWFLQKTSFKGRTFMTHATKAIYRWLLSDYVKVSNISADDMLYTETDLEESMDKIETINFHEVKEVAGIKFWCYHAGHVLGAAMFMIEIAGVKLLYTGDFSRQEDRHLMAAEIPNIKPDILIIESTYGTHIHEKREEREARFCNTVHDIVNRGGRGLIPVFALGRAQELLLILDEYWQNHPELHDIPIYYASSLAKKCMAVYQTYVNAMNDKIRKQININNPFVFKHISNLKSMDHFDDIGPSVVMASPGMMQSGLSRELFESWCTDKRNGVIIAGYCVEGTLAKHIMSEPEEITTMSGQKLPLKMSVDYISFSAHTDYQQTSEFIRALKPPHVILVHGEQNEMARLKAALIREYEDNDEVHIEVHNPRNTEAVTLNFRGEKLAKVMGFLADKKPEQGQRVSGILVKRNFNYHILSPCDLSNYTDLAMSTVKQTQAIPYTGPFNLLCYQLQKLTGDVEELEIQEKPALKVFKNITVIQEPGMVVLEWLANPSNDMYADTVTTVILEVQSNPKIRKGAVQKVSKKLEMHVYSKRLEIMLQDIFGEDCVSVKDDSILSVTVDGKTANLNLETRTVECEEGSEDDESLREMVELAAQRLYEALTPVH
B3: SLC25A22 (protein, UniProt Q9H936 1-323, looked up)
Mitochondrial glutamate …: MADKQISLPAKLINGGIAGLIGVTCVFPIDLAKTRLQNQQNGQRVYTSMSDCLIKTVRSEGYFGMYRGAAVNLTLVTPEKAIKLAANDFFRHQLSKDGQKLTLLKEMLAGCGAGTCQVIVTTPMEMLKIQLQDAGRIAAQRKILAAQGQLSAQGGAQPSVEAPAAPRPTATQLTRDLLRSRGIAGLYKGLGATLLRDVPFSVVYFPLFANLNQLGRPASEEKSPFYVSFLAGCVAGSAAAVAVNPCDVVKTRLQSLQRGVNEDTYSGILDCARKILRHEGPSAFLKGAYCRALVIAPLFGIAQVVYFLGIAESLLGLLQDPQA
B4: DARS2 (protein, UniProt Q6PI48 48-645, looked up)
Aspartate--tRNA ligase, …: VVRTNTCGELRSSHLGQEVTLCGWIQYRRQNTFLVLRDFDGLVQVIIPQDESAASVKKILCEAPVESVVQVSGTVISRPAGQENPKMPTGEIEIKVKTAELLNACKKLPFEIKNFVKKTEALRLQYRYLDLRSFQMQYNLRLRSQMVMKMREYLCNLHGFVDIETPTLFKRTPGGAKEFLVPSREPGKFYSLPQSPQQFKQLLMVGGLDRYFQVARCYRDEGSRPDRQPEFTQIDIEMSFVDQTGIQSLIEGLLQYSWPNDKDPVVVPFPTMTFAEVLATYGTDKPDTRFGMKIIDISDVFRNTEIGFLQDALSKPHGTVKAICIPEGAKYLKRKDIESIRNFAADHFNQEILPVFLNANRNWNSPVANFIMESQRLELIRLMETQEEDVVLLTAGEHNKACSLLGKLRLECADLLETRGVVLRDPTLFSFLWVVDFPLFLPKEENPRELESAHHPFTAPHPSDIHLLYTEPKKARSQHYDLVLNGNEIGGGSIRIHNAELQRYILATLLKEDVKMLSHLLQALDYGAPPHGGIALGLDRLICLVTGSPSIRDVIAFPKSFRGHDLMSNTPDSVPPEELKPYHIRVSKPTDSKAERAH
B5: RBM23 (protein, UniProt Q86U06 1-439, looked up)
Probable RNA-binding protein …: MASDDFDIVIEAMLEAPYKKEEDEQQRKEVKKDYPSNTTSSTSNSGNETSGSSTIGETSKKKRSRSHNKSRDRKRSRSRDRDRYRRRNSRSRSPGRQCRHRSRSWDRRHGSESRSRDHRREDRVHYRSPPLATGYRYGHSKSPHFREKSPVREPVDNLSPEERDARTVFCMQLAARIRPRDLEDFFSAVGKVRDVRIISDRNSRRSKGIAYVEFCEIQSVPLAIGLTGQRLLGVPIIVQASQAEKNRLAAMANNLQKGNGGPMRLYVGSLHFNITEDMLRGIFEPFGKIDNIVLMKDSDTGRSKGYGFITFSDSECARRALEQLNGFELAGRPMRVGHVTERLDGGTDITFPDGDQELDLGSAGGRFQLMAKLAEGAGIQLPSTAAAAAAAAAQAAALQLNGAVPLGALNPAALTALSPALNLASQCFQLSSLFTPQTM
B6: AKAP17A (protein, UniProt Q02040 1-695, looked up)
A-kinase anchor protein 17A: MAAATIVHDTSEAVELCPAYGLYLKPITKMTISVALPQLKQPGKSISNWEVMERLKGMVQNHQFSTLRISKSTMDFIRFEGEVENKSLVKSFLACLDGKTIKLSGFSDILKVRAAEFKIDFPTRHDWDSFFRDAKDMNETLPGERPDTIHLEGLPCKWFALKESGSEKPSEDVLVKVFEKFGEIRNVDIPMLDPYREEMTGRNFHTFSFGGHLNFEAYVQYREYMGFIQAMSALRGMKLMYKGEDGKAVACNIKVSFDSTKHLSDASIKKRQLERQKLQELEQQREEQKRREKEAEERQRAEERKQKELEELERERKREEKLRKREQKQRDRELRRNQKKLEKLQAEEQKQLQEKIKLEERKLLLAQRNLQSIRLIAELLSRAKAVKLREQEQKEEKLRLQQQEERRRLQEAELRRVEEEKERALGLQRKERELRERLLSILLSKKPDDSHTHDELGVAHADLLQPVLDILQTVSSGCVSATTLHPLGGQPPAGAPKESPAHPEADGAPKSVNGSVAEEAPCKEVQSSCRVVPEDGSPEKRCPGGVLSCIPDNNQQPKGIPACEQNVSRKDTRSEQDKCNREPSKGRGRATGDGLADRHKRERSRARRASSREDGRPRKERRPHKKHAYKDDSPRRRSTSPDHTRSRRSHSKDRHRRERSRERRGSASRKHSRHRRRSERSRSRSPSRHRSTWNR
B7: HELLS (protein, UniProt Q9NRZ9 1-838, looked up)
Lymphoid-specific helicase: MPAERPAGSGGSEAPAMVEQLDTAVITPAMLEEEEQLEAAGLERERKMLEKARMSWDRESTEIRYRRLQHLLEKSNIYSKFLLTKMEQQQLEEQKKKEKLERKKESLKVKKGKNSIDASEEKPVMRKKRGREDESYNISEVMSKEEILSVAKKNKKENEDENSSSTNLCVEDLQKNKDSNSIIKDRLSETVRQNTKFFFDPVRKCNGQPVPFQQPKHFTGGVMRWYQVEGMEWLRMLWENGINGILADEMGLGKTVQCIATIALMIQRGVPGPFLVCGPLSTLPNWMAEFKRFTPDIPTMLYHGTQEERQKLVRNIYKRKGTLQIHPVVITSFEIAMRDRNALQHCYWKYLIVDEGHRIKNMKCRLIRELKRFNADNKLLLTGTPLQNNLSELWSLLNFLLPDVFDDLKSFESWFDITSLSETAEDIIAKEREQNVLHMLHQILTPFLLRRLKSDVALEVPPKREVVVYAPLSKKQEIFYTAIVNRTIANMFGSSEKETIELSPTGRPKRRTRKSINYSKIDDFPNELEKLISQIQPEVDRERAVVEVNIPVESEVNLKLQNIMMLLRKCCNHPYLIEYPIDPVTQEFKIDEELVTNSGKFLILDRMLPELKKRGHKVLLFSQMTSMLDILMDYCHLRDFNFSRLDGSMSYSEREKNMHSFNTDPEVFIFLVSTRAGGLGINLTAADTVIIYDSDWNPQSDLQAQDRCHRIGQTKPVVVYRLVTANTIDQKIVERAAAKRKLEKLIIHKNHFKGGQSGLNLSKNFLDPKELMELLKSRDYEREIKGSREKVISDKDLELLLDRSDLIDQMNASGPIKEKMGIFKILENSEDSSPECLF
B8: MTHFD1 (protein, UniProt P11586 1-935, looked up)
C-1-tetrahydrofolate …: MAPAEILNGKEISAQIRARLKNQVTQLKEQVPGFTPRLAILQVGNRDDSNLYINVKLKAAEEIGIKATHIKLPRTTTESEVMKYITSLNEDSTVHGFLVQLPLDSENSINTEEVINAIAPEKDVDGLTSINAGKLARGDLNDCFIPCTPKGCLELIKETGVPIAGRHAVVVGRSKIVGAPMHDLLLWNNATVTTCHSKTAHLDEEVNKGDILVVATGQPEMVKGEWIKPGAIVIDCGINYVPDDKKPNGRKVVGDVAYDEAKERASFITPVPGGVGPMTVAMLMQSTVESAKRFLEKFKPGKWMIQYNNLNLKTPVPSDIDISRSCKPKPIGKLAREIGLLSEEVELYGETKAKVLLSALERLKHRPDGKYVVVTGITPTPLGEGKSTTTIGLVQALGAHLYQNVFACVRQPSQGPTFGIKGGAAGGGYSQVIPMEEFNLHLTGDIHAITAANNLVAAAIDARIFHELTQTDKALFNRLVPSVNGVRRFSDIQIRRLKRLGIEKTDPTTLTDEEINRFARLDIDPETITWQRVLDTNDRFLRKITIGQAPTEKGHTRTAQFDISVASEIMAVLALTTSLEDMRERLGKMVVASSKKGEPVSAEDLGVSGALTVLMKDAIKPNLMQTLEGTPVFVHAGPFANIAHGNSSIIADRIALKLVGPEGFVVTEAGFGADIGMEKFFNIKCRYSGLCPHVVVLVATVRALKMHGGGPTVTAGLPLPKAYIQENLELVEKGFSNLKKQIENARMFGIPVVVAVNAFKTDTESELDLISRLSREHGAFDAVKCTHWAEGGKGALALAQAVQRAAQAPSSFQLLYDLKLPVEDKIRIIAQKIYGADDIELLPEAQHKAEVYTKQGFGNLPICMAKTHLSLSHNPEQKGVPTGFILPIRDIRASVGAGFLYPLVGTMSTMPGLPTRPCFYDIDLDPETEQVNGLF
B9: TRA2A (protein, UniProt Q13595 2-282, looked up)
Transformer-2 protein homolog …: SDVEENNFEGRESRSQSKSPTGTPARVKSESRSGSRSPSRVSKHSESHSRSRSKSRSRSRRHSHRRYTRSRSHSHSHRRRSRSRSYTPEYRRRRSRSHSPMSNRRRHTGSRANPDPNTCLGVFGLSLYTTERDLREVFSRYGPLSGVNVVYDQRTGRSRGFAFVYFERIDDSKEAMERANGMELDGRRIRVDYSITKRAHTPTPGIYMGRPTHSGGGGGGGGGGGGGGGGRRRDSYYDRGYDRGYDRYEDYDYRYRRRSPSPYYSRYRSRSRSRSYSPRRY

One data set has as its system mSWI/SNF complexes. The experiment in a line: mSWI/SNF complex purification with HA-tagged baits and mass spectrometry (peptide counts). Also noted: species or system human. The following applies: 293_HA-BRD7 bait purification, mass spectrometry; total peptides per co-purified protein.
B1 came in with a Total of 2.

B2: the Total is listed as 2.

As to B3, the Total worked out at 2.

As to B4, the Total came out at 2.

B5 yielded a Total of 2.

Take B6: the Total is on record as 2.

B7 registered a Total of 2.

Consider B8, for which the Total is recorded as 2.

In turn, B9 returned a Total of 2.

The same data set, now with this note: 293_HA-BRD7 bait purification, mass spectrometry; unique peptides per co-purified protein.
B1 came in with a Unique of 2.

In turn, B2 came in with a Unique of 2.

For the molecule B3, the Unique worked out at 2.

With B4, the Unique stood at 2.

In the case of B5, the Unique was found to be 2.

B6 had a Unique of 2.

In the case of B7, the Unique is recorded as 2.

Regarding B8, the Unique is given as 2.

As to B9, the Unique is given as 2.
